Values from PubChem BioAssay AID1259331 (Drosophila RNAi Screening Center, 2017).
Screen: 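Genes whose knock-down changes cell survival under toxic zinc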 (primary screen). Cells: Drosophila S2R+ cells. Knock-down reagent: long dsRNA against Drosophila genes. Timing: 5 days (4 days knock-down, then 1 day zinc). Conditions: zinc chloride at 15 mM final level for 1 day. Read-out: 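Luminescent ATP assay standing in for viability; Z score is the mean over three replicate plates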. Direction: mean Z score: higher = more ATP than other wells, better survival under zinc; ATP luminescence: higher = more ATP, more viable cells. Rule for the call: 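Hit when the absolute Z score is greater than 1.5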. Calls: active = hit, ATP up or down; inactive = not a hit.
The deposit covers about 3,100 reagents; this is an unselected part. Of all reagents, 126 (4.1%) are marked active. 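Calls are per reagent; zinc was so toxic that few knock-downs lowered ATP further, so most hits raise ATP.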 Raw values are not corrected between plates. Reagents against one gene are numbered here. Names joined by + are all predicted targets of the reagent. Reagent sequences are not shown. Not stated in the record: the amount of reagent.

Against CG11898 #1 the deposit lists mean Z score -0.632; ATP luminescence, replicate 1 = 43249; ATP luminescence, replicate 2 = 50721; inactive.
CG11898 #2 showed mean Z score 0.109; ATP luminescence, replicate 1 = 56259; ATP luminescence, replicate 2 = 51201; inactive.
Silencing of CG8034 gave: mean Z score 0.508; ATP luminescence, replicate 1 = 55367; ATP luminescence, replicate 2 = 51698; inactive.
With knock-down of CG31523 #1, the screen gave mean Z score 0.161; ATP luminescence, replicate 1 = 68229; ATP luminescence, replicate 2 = 69213; inactive.
Against CG31523 #2 the deposit lists mean Z score -0.344; ATP luminescence, replicate 1 = 56534; ATP luminescence, replicate 2 = 46366; inactive.
Rh2 #1 gave mean Z score -0.312; ATP luminescence, replicate 1 = 38753; ATP luminescence, replicate 2 = 52350; inactive.
With knock-down of Rh2 #2, the screen gave mean Z score -0.208; ATP luminescence, replicate 1 = 51077; ATP luminescence, replicate 2 = 53756; inactive.
Knock-down of Jwa #1 resulted in: mean Z score -0.336; ATP luminescence, replicate 1 = 48646; ATP luminescence, replicate 2 = 54476; inactive.
Knock-down of Jwa #2 resulted in: mean Z score 0.178; ATP luminescence, replicate 1 = 62158; ATP luminescence, replicate 2 = 59997; inactive.
After knock-down of CG6901 #1 the results were mean Z score 0.0408; ATP luminescence, replicate 1 = 34850; ATP luminescence, replicate 2 = 58969; inactive.
For CG6901 #2, the entry reads mean Z score -0.165; ATP luminescence, replicate 1 = 71265; ATP luminescence, replicate 2 = 48732; inactive.
For Tyler + Shawn #1, the values are mean Z score 0.337; ATP luminescence, replicate 1 = 54219; ATP luminescence, replicate 2 = 45933; inactive.
Tyler + Shawn #2 scored mean Z score -0.000406; ATP luminescence, replicate 1 = 40108; ATP luminescence, replicate 2 = 38599; inactive.
Depletion of Octbeta2R #1 resulted in: mean Z score 0.103; ATP luminescence, replicate 1 = 43537; ATP luminescence, replicate 2 = 44669; inactive.
With knock-down of Octbeta2R #2 the results were mean Z score -0.273; ATP luminescence, replicate 1 = 36987; ATP luminescence, replicate 2 = 58594; inactive.
Against Octbeta2R #3 the deposit lists mean Z score 2.61; ATP luminescence, replicate 1 = 96584; ATP luminescence, replicate 2 = 1.07e5; active.
Knock-down of CG9855 resulted in: mean Z score -0.566; ATP luminescence, replicate 1 = 26291; ATP luminescence, replicate 2 = 27422; inactive.
Npc1a #1 gave mean Z score -0.239; ATP luminescence, replicate 1 = 46160; ATP luminescence, replicate 2 = 39148; inactive.
Npc1a #2 gave mean Z score 0.199; ATP luminescence, replicate 1 = 51406; ATP luminescence, replicate 2 = 52727; inactive.
For Sply #1, the entry reads mean Z score 2.66; ATP luminescence, replicate 1 = 86754; ATP luminescence, replicate 2 = 73769; active.
Knock-down of Sply #2 came out at: mean Z score 0.365; ATP luminescence, replicate 1 = 67013; ATP luminescence, replicate 2 = 62197; inactive.
aralar1 #1 gave mean Z score -0.114; ATP luminescence, replicate 1 = 46588; ATP luminescence, replicate 2 = 43370; inactive.
Against aralar1 #2 the deposit lists mean Z score -0.00464; ATP luminescence, replicate 1 = 57382; ATP luminescence, replicate 2 = 65333; inactive.
With knock-down of CG9702, the screen gave mean Z score 0.527; ATP luminescence, replicate 1 = 70133; ATP luminescence, replicate 2 = 79549; inactive.
